Source: patent publication US20230106247A1
These are yes or no findings as the source states them, for the method shown. Some results given as binding are weak or reduced against the parent protein; the word gives no strength.

Chains of the proteins cited; added tags and fusions are not shown. Lines headed by an entry give the natural chain unless they say otherwise; changes in a name come on top. A line that says so, or that is headed by a name, gives the form on record, which may keep a tag or linker.
human Sirpα-V1-his (P78324, form named): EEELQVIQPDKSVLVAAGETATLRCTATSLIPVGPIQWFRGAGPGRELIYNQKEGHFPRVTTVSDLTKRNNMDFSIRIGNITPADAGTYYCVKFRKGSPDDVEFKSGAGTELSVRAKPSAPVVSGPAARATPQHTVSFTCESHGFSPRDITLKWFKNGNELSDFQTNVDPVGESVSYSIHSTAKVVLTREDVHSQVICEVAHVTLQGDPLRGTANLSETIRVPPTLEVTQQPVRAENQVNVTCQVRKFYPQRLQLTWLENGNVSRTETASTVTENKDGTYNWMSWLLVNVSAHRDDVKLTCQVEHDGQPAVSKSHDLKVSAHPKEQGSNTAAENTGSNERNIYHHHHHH

B1: hybridoma subclone 14H6E5B5C8G2 (supernatant antibody; murine mab14) (antibody, V domains shown)
VH: QVHLQQPGAELVKPGASVKLSCKASGYNFNIYWINWVKQRPGQGLEWIGNIYPSSISTNYNEKFKTKATLTVDKSSNTVYMQFSSLTSEDSAVYYCARSEGTYYGGRYEGDWFGYWGQGTLVTVSA
VL: DIQMTQTTSSLSASLGDRVTISCRASQDIRNYLNWYQQKPDGTVKLLIYFTSTLHSGVPSRFSGSGSGTDYSLTISNLEQEDIATYFCQQGNTLPWTFGGGTKLEIK
B2: human-murine chimeric antibody mab14c (antibody, human IgG4 S228P, kappa, V domains shown)
VH: B1 VH
VL: DIQMTQTTSSLSASLGDRVTISCRASQDIRNYLNWYQQKPDGTVKLLIYFTSTLHSGVPSRFSGSGSGTDYSLTISNLEQEDIATYFCQQGNTLPWTFGGGTKLEIKR

What was measured:
[1] = target: human Sirpα-V1-his (human) (UniProt P78324); experiment: ELISA, supernatant
[2] = target: Cyno Sirpα L938 (cynomolgus); experiment: ELISA
[3] = target: Cyno Sirpα L939 (cynomolgus); experiment: ELISA

| Binder | binding [1] | binding [2] | binding [3] |
| --- | --- | --- | --- |
| B1 | binds | – | – |
| B2 | – | no binding (tested: EC50 ≥ 50 nM or no signal value detected) | no binding (tested: EC50 ≥ 50 nM or no signal value detected) |
